Experimental findings from patent publication US9732137 (dated 2017) are described below.

Data set [1] in a line: general procedure: peptide synthesis; 2-chlorotritylchloride resin 1% DVB; HBTU or HATU; alternatively PyBOP, PyBrOP, TFFH; DIC/HOAt; TCTU/DIPEA. The following applies: whole synthesis, scale of the general procedure 0.25 mmol or 1.0 mmol, TFA salt; run 1.
Data set [2] can be described thus: general procedure: peptide synthesis; 2-chlorotritylchloride resin; Wang or trityl based resins; HBTU or HATU; alternatively PyBOP, PyBrOP, TFFH; DIC/HOAt; TCTU/DIPEA. The following applies: TFA salt; for final HPLC purity: 220 nm.
[3] abbreviates: whole synthesis, scale of the general procedure 0.25 mmol or 1.0 mmol, run 2.

In the case of Fmoc-His(Boc)-Aib-Glu(O-Tbu)-Gly-OH, the results for the isolated yield in data set [1] and in data set [2] (setting [3]) were 45% and 80%, respectively. The “final HPLC purity” value is 99.0% in data set [2] (whole synthesis, scale of the general procedure 0.25 mmol or 1.0 mmol, run 1) and 98.7% in data set [2] (setting [3]).

On to Fmoc-His(Boc)-Aib-Glu(OtBu)-Gly-OSu, for which the step yield in data set [2] (late stage modification step) was 79%.
